The values below come from PubChem BioAssay AID2685 (National Center for Advancing Translational Sciences (NCATS), 2010).

This assay is described as follows: qHTS Assay for Lipid Storage Modulators in Drosophila S3 Cells.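 For cell number change: cells counted by Cell Tracker Red CMTPX staining in the red channel.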 As to conditions: BODIPY lipid droplet fluorescence, 18-24 h; for cell number change: measured here: cell count max response, cells fed with added oleic acid. The method in brief: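 Drosophila S3 cells got compounds at several concentrations plus oleic acid (400 uM solution). Laser-scanning cytometry with 488 nm excitation read lipid droplets at 500-530 nm and cells at 575-640 nm. Percent activity was relative to 20 uM Triacsin C.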
(In general: In qHTS, concentration-response curves come from the screen itself.)

[1] abbreviates: measured here: cell number channel AC50, cells fed with added oleic acid.
Where [2] appears, read: measured here: lipid fluorescence (Fed channel) AC50, cells fed with added oleic acid.

By AC50 is commonly meant the concentration at which the activity in the assay is half-maximal. Low values mean activity at low concentration, high ones activity only at high concentration.

This is one part of the list. The main result of the screen is listed elsewhere. These columns were measured beside it and carry no call. Compounds called inactive in the main read-out are mostly missing here. The note in brackets gives the kind of curve behind each potency; many fits are weak.

Turning to `Cn1cc(CCC(=O)NCc2cccc(Cl)c2)c2ccccc21`, the cell number change was 22.5%. For the same compound, the AC50 under setting [1] is 4.11 µM [rising, full curve, poor fit].

On to `CN(c1ccccc1)S(=O)(=O)c1ccc(NC(=S)NC(=O)c2ccccc2)cc1`, for which the AC50 reads like this: under setting [1], 0.92 µM [rising, partial curve]; under setting [2], 2.91 µM [rising, full curve].

`CCOC(=O)N1CCN(C(=O)COC(=O)CNC(=O)c2ccc(Cl)cc2Cl)CC1`: the cell number change was -25%. For the same compound, the AC50 under setting [1] was 1.46 µM [falling, full curve, poor fit].

For the compound `O=C1CCN(Cc2ccccc2)CCN1CCOc1ccccc1`, the cell number change came out at 16.2%. In addition, under setting [2], the half-maximal activity concentration (AC50) was 0.651 µM [rising, single point].

Regarding `Cc1c(C(=O)N(Cc2ccccc2)C(C)C)oc2ccc(S(=O)(=O)N3CCOCC3)cc12`, the cell number change was -33.6%. Further, the half-maximal activity concentration (AC50) under setting [1] was 4.11 µM [falling, full curve, poor fit]. Besides, under setting [2], the AC50 was 14.6 µM [falling, partial curve].

As for `Cc1cc(C(=O)N/N=C2\CC(=O)CC(C)(C)C2)c(C)n1-c1ccc(F)cc1`, the cell number change was 23.7%. In addition, under setting [2], the AC50 was 16.4 µM [rising, single point].

Regarding `C/C(=N/NC(=O)C(C)n1nc(C)c([N+](=O)[O-])c1C)c1ccc(OCC(N)=O)cc1` (stereo unspecified), the cell number change amounted to 59%. Also, the AC50 under setting [1] was 25.9 µM [rising, partial curve, poor fit]. Moreover, the AC50 under setting [2] is 29.1 µM [rising, single point].

Consider `CCc1ccccc1NC(=O)c1ccc(S(=O)(=O)N2CCCC2)cc1`, for which the cell number change is -11.5%. In addition, under setting [2], the half-maximal activity concentration (AC50) was 29.1 µM [falling, partial curve, poor fit].

In the case of `COc1ccccc1C(=O)NC(=O)Nc1cccc(Cl)c1`, the cell number change was -0.708%.

Regarding `CN(CCC#N)C(=O)COC(=O)c1cc(Cl)cc(Cl)c1N`, the cell number change was -9.06%. Further, the AC50 under setting [2] is 0.00461 µM [falling, full curve, poor fit].

With `CCc1cccc(OCC2Cn3c(nc4c3c(=O)[nH]c(=O)n4C)O2)c1` (stereo unspecified), the cell number change worked out at 14.8%.

Regarding `COCCCNc1ncnc2c1[nH]c1ccccc12`, the cell number change amounted to 7.32%. Under setting [2], the concentration at half-maximal activity (AC50) was 6.51 µM [rising, single point].

Regarding `Cc1cc(S(=O)(=O)N2c3ccc(F)cc3CCC2C)ccc1-n1cnnn1` (stereo unspecified), the cell number change is -24.8%. For the same compound, the AC50 under setting [2] was 29.1 µM [falling, single point].

Take `CCCN1C(=O)C2(SC(NC(C)=O)=NN2C(C)=O)c2cc(C)cc(C)c21` (stereo unspecified): the cell number change was -1.87%. Moreover, under setting [2], the AC50 was 29.1 µM [falling, single point].

On to `Nc1cccc2c1C(=O)N(CCOc1ccc(F)cc1)C2=O`, for which the cell number change was determined as 11.3%. Further, the AC50 under setting [2] was 0.164 µM [falling, full curve, poor fit].

For the compound `O=C(/C=C/c1cccc(Br)c1)OCC(=O)N1CCN(c2ccccc2)CC1`, the cell number change is -2.9%. Further, the AC50 under setting [2] is 4.11 µM [rising, single point].

Regarding `CCOC(=O)C1C(=O)NC(SC)=C(C#N)C1c1ccccc1F` (stereo unspecified), the cell number change was 1.25%.

As for `CCN(CC)c1ccc2c(Cl)c(Br)c(=O)oc2c1`, the cell number change is -9.77%. Also, the concentration at half-maximal activity (AC50) under setting [2] was 20.6 µM [falling, partial curve, poor fit].

`COc1ccc(Cc2nnc(NC(=O)CS(=O)(=O)c3ccc(C)cc3)s2)cc1OC`: the cell number change turned out to be 17%.

Take `O=C1CC(C(=O)NCCc2ccccc2)SC(=Nc2ccccc2)N1` (stereo unspecified): the cell number change was -18.3%. Besides, under setting [2], the AC50 is 29.1 µM [rising, single point].

As to `Cc1sc(NC(=O)C2=COCCO2)c(C#N)c1C`, the cell number change was -16%.

For the compound `COc1ccc(NC(=O)CN(C)S(=O)(=O)c2ccc(Cl)cc2)cn1`, the cell number change was 8.8%. For the same compound, the half-maximal activity concentration (AC50) under setting [2] was 6.51 µM [rising, single point].

Regarding `O=C(Cc1cccc2ccccc12)Nc1nnc(-c2cccc([N+](=O)[O-])c2)s1`, the cell number change came out at 14.4%. The AC50 under setting [2] was 7.31 µM [rising, partial curve].

For `Cc1cc(N2CCCCC2)n2ncc(-c3ccccc3)c2n1`, the cell number change was -23.7%. Moreover, the AC50 under setting [2] was 13 µM [falling, partial curve, poor fit].

As for `Cc1cc(C)c(C)c(S(=O)(=O)NNC(=O)c2cccc(S(=O)(=O)N3CCOCC3)c2)c1C`, the cell number change came to 0.235%. For the same compound, the AC50 under setting [2] was 14.6 µM [falling, partial curve].

For the compound `Cc1ccc(C(=O)OCC(=O)NC(=O)NCc2ccccc2)cc1C`, the cell number change was -35.6%. Moreover, under setting [1], the AC50 is 13 µM [falling, partial curve]. The half-maximal activity concentration (AC50) under setting [2] is 8.2 µM [falling, partial curve, poor fit].

On to `Cc1sc2ncnc(N(C)Cc3cccs3)c2c1C`, for which the cell number change amounted to 46%. Besides, under setting [1], the concentration at half-maximal activity (AC50) is 5.8 µM [rising, full curve]. Under setting [2], the AC50 is 16.4 µM [rising, partial curve].

Regarding `Cc1nc2ccc(NC(=O)c3ccc([N+](=O)[O-])cc3)cc2s1`, the cell number change was -34.3%. Moreover, the AC50 under setting [2] was 0.92 µM [falling, full curve, poor fit].

As to `CCN1CCN(C(=O)Cn2c(=O)sc3ccccc32)CC1`, the AC50 under setting [2] was 8.2 µM [rising, partial curve].

In the case of `Cc1cc(C(=O)COC(=O)c2cccn2C)c(C)n1Cc1ccco1`, the cell number change was 38.9%. Moreover, the AC50 under setting [1] was 3.66 µM [rising, full curve]. Moreover, the AC50 under setting [2] is 29.1 µM [rising, single point].

Take `O=C(Nc1ccc2c(c1)CCC2)C1CCN(c2c3c(nc4ncnn24)CCC3)CC1`: the cell number change was -10.7%. Also, the AC50 under setting [2] is 32.6 µM [falling, single point].

As to `N#Cc1ccccc1NCc1ccccc1`, the cell number change was determined as 2.93%. Moreover, the AC50 under setting [2] is 0.116 µM [rising, full curve, poor fit].

For `COc1ccc(OCC(=O)Nc2nnc(S(=O)(=O)N3CCCCCC3)s2)cc1`, the cell number change was -12.9%.

On to `CCOC(=O)c1cc2c(=O)c3ccccc3oc2nc1C`, for which the cell number change was -18.1%. Also, the AC50 under setting [2] was 29.1 µM [falling, single point].

On to `O=C(CSc1ncnc2scc(-c3ccccc3)c12)N1CCN(c2ccccc2F)CC1`, for which the cell number change is -1.97%. The concentration at half-maximal activity (AC50) under setting [2] is 3.26 µM [rising, single point].

In the case of `COC(=S)Nc1cccc(C(F)(F)F)c1`, the cell number change is -19.4%. The AC50 under setting [1] was 6.51 µM [falling, single point]. Further, under setting [2], the AC50 is 6.51 µM [falling, partial curve, poor fit].

In the case of `Cc1ccc(Cn2ccnc2C(=O)Nc2ccccc2)cc1`, the cell number change was found to be 17.8%. Moreover, the AC50 under setting [1] was 0.082 µM [rising, full curve, poor fit]. The AC50 under setting [2] was 0.103 µM [rising, full curve, poor fit].

Consider `CC(=O)c1cccc(NC(=O)C(C)OC(=O)c2cc(=O)[nH]c3ccccc23)c1` (stereo unspecified), for which the cell number change is -8.75%. The AC50 under setting [2] is 5.17 µM [rising, partial curve].
